Experimental findings from article PMC12297799 are described below.

Sequences of proteins named here, by UniProt entry; tags and fusion partners are left off.
UniProt Q08J23: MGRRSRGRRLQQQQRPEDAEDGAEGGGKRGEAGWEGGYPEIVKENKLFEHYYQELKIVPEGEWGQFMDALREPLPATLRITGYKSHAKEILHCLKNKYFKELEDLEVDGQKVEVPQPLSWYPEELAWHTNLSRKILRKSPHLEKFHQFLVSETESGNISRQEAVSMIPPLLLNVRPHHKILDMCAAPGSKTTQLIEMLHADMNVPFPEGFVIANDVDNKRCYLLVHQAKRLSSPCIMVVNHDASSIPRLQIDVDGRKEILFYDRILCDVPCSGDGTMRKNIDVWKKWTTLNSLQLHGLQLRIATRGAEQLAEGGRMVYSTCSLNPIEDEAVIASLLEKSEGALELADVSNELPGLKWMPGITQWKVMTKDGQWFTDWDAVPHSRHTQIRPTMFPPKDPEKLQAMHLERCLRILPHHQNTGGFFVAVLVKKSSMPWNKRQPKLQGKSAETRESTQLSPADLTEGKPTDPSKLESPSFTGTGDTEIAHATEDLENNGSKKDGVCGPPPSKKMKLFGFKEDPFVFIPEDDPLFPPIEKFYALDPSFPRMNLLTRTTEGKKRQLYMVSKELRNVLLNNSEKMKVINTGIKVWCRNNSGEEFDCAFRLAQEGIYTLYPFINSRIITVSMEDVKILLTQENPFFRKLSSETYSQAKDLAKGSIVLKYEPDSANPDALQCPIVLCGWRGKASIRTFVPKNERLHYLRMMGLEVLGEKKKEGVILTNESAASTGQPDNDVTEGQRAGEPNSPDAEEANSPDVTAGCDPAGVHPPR
UniProt Q9UNE7: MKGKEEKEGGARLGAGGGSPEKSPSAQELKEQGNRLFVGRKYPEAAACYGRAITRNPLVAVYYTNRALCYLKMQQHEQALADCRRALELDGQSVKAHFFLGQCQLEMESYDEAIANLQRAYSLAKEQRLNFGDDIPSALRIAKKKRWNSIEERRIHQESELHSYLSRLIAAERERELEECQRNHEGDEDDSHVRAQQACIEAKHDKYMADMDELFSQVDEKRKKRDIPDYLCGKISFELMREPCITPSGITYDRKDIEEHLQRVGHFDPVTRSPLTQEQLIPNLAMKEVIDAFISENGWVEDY

No constants are given. Whether binding was seen depends on the method and setting. Binding seen in cells or lysates may run through a third protein. Some results given as binding are weak or reduced against the parent protein; the word gives no strength.

The test deals with endogenous NSUN2 of ESCC cells (human (endogenous in ESCC cells)) (UniProt Q08J23). The experiment in a line: co-IP; endogenous STUB1 and NSUN2 from ESCC cell lysate; also in ESCC cells with TTPAL knockdown or TTPAL overexpression; IP lysis buffer, antibody overnight at 4 °C, three washes, Western blot.

“endogenous STUB1 of ESCC cells (from UniProt Q9UNE7 1-303)”: the binding entry is “binds”.
